In all, about 31,000 sequences went through this assay and about 1,400 (4.5%) were called active.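 Rule for the calls: active = median seed-adjusted z-score above 1 or below -1; inactive = the rest.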 This is one part of the list.
Assay: Novel Modifiers of Survival Motor Neuron (SMN) Protein: Gene Identification via Genome-wide siRNA Screen;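 note: luminescence tracks full-length SMN protein made from the SMN2 reporter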
Settings: HEK293T SMN2-luciferase reporter, siRNA knockdown, 72 h; actives lie on both sides
Method in brief: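 HEK293T cells stably expressing an SMN2 splicing/cDNA-luciferase reporter were reverse-transfected with a druggable-genome siRNA library and read by luminescence at 72 hours; hits defined by MAD score above 1.0 or below -1.0.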

| Sequence | median seed-adjusted z-score |
| --- | --- |
| CCAAGAGGAGAGUCCUAUATT against ZNF639 | inactive: 0.182 |
| ACAUGUGCUUGACAAGUUUTT against POLR1D | inactive: -0.0409 |
| GCCGCCUACUCAUUCUACATT against NMT2 | inactive: 0.494 |
| GGACUUCGAGUGUGACUAUTT against SORCS3 | inactive: -0.151 |
| GUGGGUACCAUAUCGCUUATT against SMG1 | inactive: -0.106 |
| CACUCUACGUCUUUACGGATT against HHATL | inactive: 0.497 |
| CGGGAGUCAUAACACUAAATT against HIBCH | inactive: 0.0655 |
| AGAUCAGACAGCAACGAUATT against RHD | inactive: 0.496 |
| AGAACUCUCUGAUUGUCAUTT against GPR1 | inactive: 0.0609 |
| GGCCUAUGCUAAUCAUUCUTT against FANCA | inactive: 0.418 |
| GCAACUAUGAUAUUUAUGATT against UGT2B17 | inactive: -0.0203 |
| CAGUGUUAGUACUCGAUAATT against EXT2 | inactive: -0.127 |
| GCAAUAUGUUUAUCCAUAATT against CSE1L | inactive: 0.425 |
| UCAUGUACCUCAGAAGUCATT against CLEC4C | inactive: 0.664 |
| CUACCGAGAUUUUAGAUGATT against POLE | active: -1.55 |
| AGCAGAGGCUUAUCCCUGUTT against RND2 | inactive: -0.0613 |
| CACCUGAGCAGCAAAAGAATT against PACSIN1 | inactive: -0.681 |
| CGAGUGCGCGAGAAACAGATT against COX7A1 | inactive: -0.47 |
| ACAGGGCUCUGGAUAUUGATT against AP3D1 | inactive: 0.213 |
| GCCCAUGGGAAAUACCAGATT against NPR2 | inactive: 0.0712 |
| GCACCAUUGACGUGUCAAATT against POLD2 | inactive: 0.97 |
| GUAGAGUAGUGUUAGAUGATT against IRAK3 | inactive: 0.155 |

| Sequence | median seed-adjusted z-score |
| --- | --- |
| CCGUAGUGCUGAUGAACCATT against TCEA1 | inactive: 0 |
| AGCUCGAUAUCACAGAGAATT against CES7 | inactive: -0.374 |
| GGCUCAUCUUCUACCGGAATT against SHMT2 | inactive: -0.0453 |
| CCGGGUCAUCUAUUCCGAATT against ICAM4 | inactive: -0.338 |
| GCCUGGUACCUCUUAAGAATT against TIAM2 | inactive: -0.0239 |
| AGAACUCGCUCAACAUCAUTT against KCNC1 | inactive: 0.73 |
| CAAGAACUACAGAUUCGUATT against PPP1R13B | inactive: 0.0943 |
| GCCUUACCCAGAAAGGAAATT against ZNF276 | inactive: 0.318 |
| AGCCCAAGCAGAUAUGUAATT against NOTCH4 | inactive: -0.384 |
| GGCUUUACUUCAGGAUAUATT against GBP2 | inactive: -0.263 |
| GAAAUACCCUCACAUGUUATT against LSM2 | active: -1.48 |
| GGACAAUAGAAUACCUAGATT against HADHA | inactive: 0.47 |
| UGAAGCUGGUUGUCCGUUATT against LIN7B | inactive: 0.236 |
| CAGUCUUGAUUCCACUGAATT against PCDHA3 | inactive: 0.311 |
| GCAACGUACGCACUUCACATT against PITX1 | inactive: 0 |
| CUCUAUACUUUUAACGAUUTT against TRIM60 | inactive: -0.201 |
| GAUUUGCACUAUCGGAAUATT against TRPM7 | inactive: -0.575 |
| UCCUGGAAAUCGUGACUAUTT against KCNQ2 | inactive: 0.0368 |
| GAACGAUGUUGGACUCAUATT against INSR | inactive: 0.172 |
| GGUUUUUCAAGUACGAAAATT against RPS6KB1 | active: 1.4 |
| GGAACUGACAGAGUCCGUATT against BACH1 | inactive: -0.404 |
| GAACAUCAAUUGUUCCAUATT against HMGCL | inactive: 0.046 |

| Sequence | median seed-adjusted z-score |
| --- | --- |
| CGAAGAAGCGUAUGCGGAATT against PNKP | inactive: -0.0563 |
| CAUCGAAUCCUUACCCGAATT against AASDHPPT | inactive: 0.64 |
| AGAGAUCACCGAUUACAGATT against ISG20 | inactive: 0.0209 |
| GCAAUUUCCUAGACAAUGATT against SPOCK1 | inactive: -0.596 |
| GCAGGACAGCUAUCGCUUUTT against TBC1D1 | inactive: -0.359 |
| CCCAGGCUCGAAUCCCAUATT against PLD3 | inactive: 0.066 |
| GCAUGUGAUUGACAUCAAUTT against PCDHGA3 | inactive: 0.27 |
| UCACCGUGCUGAUUCGGAATT against CCKAR | inactive: 0.376 |
| CAGCGAAAUUUCUUCAGUUTT against PPP4R2 | inactive: 0.211 |
| GGAAGACUAUAAAUCUAUATT against TTC1 | inactive: 0.3 |
| CAUCGAUACUGGUGAAGGATT against MYBPC3 | inactive: 0.304 |
| CCAUCCUUGCUAGAGAAAATT against SULT1C4 | inactive: 0.00352 |
| GGGUCGAAUUUCUUCUAGATT against ASNSD1 | inactive: 0.437 |
| CACUGAGGAUAAACCCUAUTT against ZNF20 | inactive: -0.359 |
| GGAUCACGAUGAAGACAAATT against CTSL3 | active: 1.07 |
| GGAAGGUGAUGUACGCCUUTT against DBNL | inactive: 0.398 |
| AAUCCUCCUUCGUAUUAUATT against LITAF | inactive: 0.0771 |
| GACUUUCAGUUCUUACGAUTT against CCNB3 | inactive: 0 |
| CCACAGAACCUGAAUCGCUTT against KRT84 | inactive: -0.645 |
| GGAUGAAAACUUCAAACGATT against OPRM1 | inactive: -0.00476 |
| CGGAAACGCCAGACUUCUATT against SPINK1 | inactive: 0.292 |
| GCAUCGUGGACAUAUCUAUTT against MCM4 | inactive: 0.0057 |

Fetched one by one from above, five records:

| Sequence | median seed-adjusted z-score |
| --- | --- |
| GCAGGACAGCUAUCGCUUUTT against TBC1D1 | inactive: -0.359 |
| AGAGAUCACCGAUUACAGATT against ISG20 | inactive: 0.0209 |
| CAUCGAAUCCUUACCCGAATT against AASDHPPT | inactive: 0.64 |
| CCCAGGCUCGAAUCCCAUATT against PLD3 | inactive: 0.066 |
| GCAAUUUCCUAGACAAUGATT against SPOCK1 | inactive: -0.596 |

Next results

| Sequence | median seed-adjusted z-score |
| --- | --- |
| CAAUAUCAAAAAUGACUUUTT against SKP1 | inactive: -0.0492 |
| CCGUAACCAAGGCCCAGAATT against HIST1H2BO | inactive: 0.634 |
| CCAAAUCGAUGACCGACAATT against GPR115 | inactive: -0.189 |
| GGACGGAGAUUACAUCAAUTT against PTPN7 | inactive: -0.189 |
| CAAUGAGCACUUGAAGAUUTT against TRIM65 | inactive: -0.599 |
| GGAGGGUUUUCACGAUGAATT against AP2B1 | inactive: -0.214 |
| GGAGCGUAUCUGUGAGAAATT against FASN | inactive: 0.282 |
| GGAGAGAAGAUUACCAUGATT against SDCBP | inactive: 0.0325 |
| AGUGGUCCCUUCACAGGAATT against GNRH2 | active: 1.13 |
| GAAUGUGACAAUACAUUUATT against ZNF431 | inactive: 0.00537 |
| GACUUUGCUUUGAUUCAUATT against PRPS1L1 | inactive: 0 |
| CCUUAUGAGCAACCAAUGATT against ZFAT | inactive: -0.183 |
| GAAAGCGGCUUAUCGAACATT against CUX1 | inactive: -0.527 |
| GAUGGACAUUGAUAGCGAUTT against DTX3L | inactive: 0.0785 |
| ACCUCUUCCCGAAAGGAAATT against PTGER2 | inactive: 0 |
| CCUUGUUUCUUGAGUGUUUTT against TBXA2R | inactive: 0 |
| CCCACUUGAUUACCCGUUATT against UBE2G2 | inactive: -0.043 |
| GCUGGUGACUAUUAUCGGATT against SLC24A4 | inactive: 0.0358 |
| CGACUAUUCUUGCAAGUGUTT against ADAM28 | inactive: 0.211 |
| GCUAUGAACUGGACGAAAATT against VTN | inactive: -0.435 |
| AGUACUACAGGACAAUUGATT against KRT17 | inactive: -0.0871 |
| GCUUCAAUCUGAGACCAGUTT against ZNF79 | inactive: -0.351 |

Shown with each value named: part of the list above.
GACUUUGCUUUGAUUCAUATT against PRPS1L1
  median seed-adjusted z-score: inactive: 0
CCUUAUGAGCAACCAAUGATT against ZFAT
  median seed-adjusted z-score: inactive: -0.183

Later entries:

| Sequence | median seed-adjusted z-score |
| --- | --- |
| GGCAAUACAUGUAUCUAAATT against PAX4 | inactive: 0.0811 |
| GCACUGCUUAUGAAUCAGATT against ST6GALNAC1 | inactive: -0.854 |
| GCAUGUACAAGGGAUAUAATT against CD300E | inactive: 0.337 |
| CAGUGGAUCUAUAUGAACATT against KIT | inactive: -0.686 |
| CCAAGUUAUUGCUAUCAGATT against PPCS | inactive: 0 |
| GGUGCAUAAGGAGAACUUUTT against TRPM4 | inactive: 0.0519 |
| CCGUAAAGGCUCAUCCAAATT against CCNI | inactive: -0.174 |
| GGCCUAUGGUGUCCCAGUATT against CDK10 | inactive: 0.327 |
| CAGUUAUACUCAGAAGAGATT against ZNF155 | inactive: 0.698 |
| GAAGAGUUACUACAGUAAATT against MYT1 | inactive: -0.292 |
| CUCCCUACGAUGUACCCUATT against MYO15A | inactive: 0.0508 |
| UCGUUGAUGUUGGACAAUUTT against METTL2A | inactive: -0.49 |
| AGUGGAAGGUCCUAAAUUATT against 9-Mar | inactive: 0.261 |
| ACGGCUACGUGGUAAAGGATT against RPS6KA1 | inactive: 0.194 |
| GCUCCAAUGGGUCUCAGUATT against TFDP1 | inactive: 0.0449 |
| GGAUGGGCCUUGAAGCCUUTT against GPR97 | inactive: -0.0155 |
| GGUGUUUGAUAUACAGAGGTT against RABL2A | inactive: 0.794 |
| GAAGGAAUCGAAGAAUUAATT against GTPBP10 | inactive: 0 |
| GAGAUGCGGUUGACCCUAATT against KIF13B | inactive: 0.456 |
